From article PMC12124498 come the findings set out here.

Chains of the proteins cited; added tags and fusions are not shown.
UniProt P26368: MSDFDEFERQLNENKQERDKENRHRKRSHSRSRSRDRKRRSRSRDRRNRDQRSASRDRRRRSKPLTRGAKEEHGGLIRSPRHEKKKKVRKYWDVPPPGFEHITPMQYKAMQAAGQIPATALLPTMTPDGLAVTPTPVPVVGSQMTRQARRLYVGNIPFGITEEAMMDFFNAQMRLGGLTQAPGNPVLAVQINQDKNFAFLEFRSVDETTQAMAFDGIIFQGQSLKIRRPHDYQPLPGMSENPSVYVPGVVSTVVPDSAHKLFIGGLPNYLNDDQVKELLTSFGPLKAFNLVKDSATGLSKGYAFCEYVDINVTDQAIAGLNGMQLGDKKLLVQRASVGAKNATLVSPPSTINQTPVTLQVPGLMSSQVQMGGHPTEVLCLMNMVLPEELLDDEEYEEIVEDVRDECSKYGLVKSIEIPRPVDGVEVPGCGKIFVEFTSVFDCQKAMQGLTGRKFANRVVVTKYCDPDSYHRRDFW

No constants are given. Whether binding was seen depends on the method and setting. In cells and extracts the contact can be indirect. These calls come from enrichment with a bait or labelling near it, and not all partners need be listed.

This assay has as its target U2AF2-TurboID-HA (human) (UniProt P26368). Briefly: proximity labelling; U2AF2-TurboID-HA induced with doxycycline for 4 h in mesoderm cells differentiated from hiPSC (CHIR99021, 24 h); biotinylated proteins purified on streptavidin magnetic beads, LC-MS with label-free quantification; hits: Log2ΔLFQ >= 2 and p <= 0.05, mesoderm against pluripotent U2AF2-TurboID samples or against GFP-TurboID.

B1: RBM14 (protein, UniProt Q96PK6 1-669)
chain: MKIFVGNVDGADTTPEELAALFAPYGTVMSCAVMKQFAFVHMRENAGALRAIEALHGHELRPGRALVVEMSRPRPLNTWKIFVGNVSAACTSQELRSLFERRGRVIECDVVKDYAFVHMEKEADAKAAIAQLNGKEVKGKRINVELSTKGQKKGPGLAVQSGDKTKKPGAGDTAFPGTGGFSATFDYQQAFGNSTGGFDGQARQPTPPFFGRDRSPLRRSPPRASYVAPLTAQPATYRAQPSVSLGAAYRAQPSASLGVGYRTQPMTAQAASYRAQPSVSLGAPYRGQLASPSSQSAAASSLGPYGGAQPSASALSSYGGQAAAASSLNSYGAQGSSLASYGNQPSSYGAQAASSYGVRAAASSYNTQGAASSLGSYGAQAASYGAQSAASSLAYGAQAASYNAQPSASYNAQSAPYAAQQAASYSSQPAAYVAQPATAAAYASQPAAYAAQATTPMAGSYGAQPVVQTQLNSYGAQASMGLSGSYGAQSAAAATGSYGAAAAYGAQPSATLAAPYRTQSSASLAASYAAQQHPQAAASYRGQPGNAYDGAGQPSAAYLSMSQGAVANANSTPPPYERTRLSPPRASYDDPYKKAVAMSKRYGSDRRLAELSDYRRLSESQLSFRRSPTKSSLDYRRLPDAHSDYARYSGSYNDYLRAAQMHSGYQRRM
As for B1, the binding result is “binds”.

B2: ZC3H14 (protein, UniProt Q6PJT7 1-736)
chain: MEIGTEISRKIRSAIKGKLQELGAYVDEELPDYIMVMVANKKSQDQMTEDLSLFLGNNTIRFTVWLHGVLDKLRSVTTEPSSLKSSDTNIFDSNVPSNKSNFSRGDERRHEAAVPPLAIPSARPEKRDSRVSTSSQESKTTNVRQTYDDGAATRLMSTVKPLREPAPSEDVIDIKPEPDDLIDEDLNFVQENPLSQKKPTVTLTYGSSRPSIEIYRPPASRNADSGVHLNRLQFQQQQNSIHAAKQLDMQSSWVYETGRLCEPEVLNSLEETYSPFFRNNSEKMSMEDENFRKRKLPVVSSVVKVKKFNHDGEEEEEDDDYGSRTGSISSSVSVPAKPERRPSLPPSKQANKNLILKAISEAQESVTKTTNYSTVPQKQTLPVAPRTRTSQEELLAEVVQGQSRTPRISPPIKEEETKGDSVEKNQGTQQRQLLSRLQIDPVMAETLQMSQDYYDMESMVHADTRSFILKKPKLSEEVVVAPNQESGMKTADSLRVLSGHLMQTRDLVQPDKPASPKFIVTLDGVPSPPGYMSDQEEDMCFEGMKPVNQTAASNKGLRGLLHPQQLHLLSRQLEDPNGSFSNAEMSELSVAQKPEKLLERCKYWPACKNGDECAYHHPISPCKAFPNCKFAEKCLFVHPNCKYDAKCTKPDCPFTHVSRRIPVLSPKPAVAPPAPPSSSQLCRYFPACKKMECPFYHPKHCRFNTQCTRPDCTFYHPTINVPPRHALKWIRPQTSE
Turning to B2, the binding result is “binds”.

B3: HELLS (protein, UniProt Q9NRZ9 1-838)
chain: MPAERPAGSGGSEAPAMVEQLDTAVITPAMLEEEEQLEAAGLERERKMLEKARMSWDRESTEIRYRRLQHLLEKSNIYSKFLLTKMEQQQLEEQKKKEKLERKKESLKVKKGKNSIDASEEKPVMRKKRGREDESYNISEVMSKEEILSVAKKNKKENEDENSSSTNLCVEDLQKNKDSNSIIKDRLSETVRQNTKFFFDPVRKCNGQPVPFQQPKHFTGGVMRWYQVEGMEWLRMLWENGINGILADEMGLGKTVQCIATIALMIQRGVPGPFLVCGPLSTLPNWMAEFKRFTPDIPTMLYHGTQEERQKLVRNIYKRKGTLQIHPVVITSFEIAMRDRNALQHCYWKYLIVDEGHRIKNMKCRLIRELKRFNADNKLLLTGTPLQNNLSELWSLLNFLLPDVFDDLKSFESWFDITSLSETAEDIIAKEREQNVLHMLHQILTPFLLRRLKSDVALEVPPKREVVVYAPLSKKQEIFYTAIVNRTIANMFGSSEKETIELSPTGRPKRRTRKSINYSKIDDFPNELEKLISQIQPEVDRERAVVEVNIPVESEVNLKLQNIMMLLRKCCNHPYLIEYPIDPVTQEFKIDEELVTNSGKFLILDRMLPELKKRGHKVLLFSQMTSMLDILMDYCHLRDFNFSRLDGSMSYSEREKNMHSFNTDPEVFIFLVSTRAGGLGINLTAADTVIIYDSDWNPQSDLQAQDRCHRIGQTKPVVVYRLVTANTIDQKIVERAAAKRKLEKLIIHKNHFKGGQSGLNLSKNFLDPKELMELLKSRDYEREIKGSREKVISDKDLELLLDRSDLIDQMNASGPIKEKMGIFKILENSEDSSPECLF
Take B3: the binding entry was “binds”.

B4: TMPO (protein, UniProt P42166 1-694)
chain: MPEFLEDPSVLTKDKLKSELVANNVTLPAGEQRKDVYVQLYLQHLTARNRPPLPAGTNSKGPPDFSSDEEREPTPVLGSGAAAAGRSRAAVGRKATKKTDKPRQEDKDDLDVTELTNEDLLDQLVKYGVNPGPIVGTTRKLYEKKLLKLREQGTESRSSTPLPTISSSAENTRQNGSNDSDRYSDNEEGKKKEHKKVKSTRDIVPFSELGTTPSGGGFFQGISFPEISTRPPLGSTELQAAKKVHTSKGDLPREPLVATNLPGRGQLQKLASERNLFISCKSSHDRCLEKSSSSSSQPEHSAMLVSTAASPSLIKETTTGYYKDIVENICGREKSGIQPLCPERSHISDQSPLSSKRKALEESESSQLISPPLAQAIRDYVNSLLVQGGVGSLPGTSNSMPPLDVENIQKRIDQSKFQETEFLSPPRKVPRLSEKSVEERDSGSFVAFQNIPGSELMSSFAKTVVSHSLTTLGLEVAKQSQHDKIDASELSFPFHESILKVIEEEWQQVDRQLPSLACKYPVSSREATQILSVPKVDDEILGFISEATPLGGIQAASTESCNQQLDLALCRAYEAAASALQIATHTAFVAKAMQADISQAAQILSSDPSRTHQALGILSKTYDAASYICEAAFDEVKMAAHTMGNATVGRRYLWLKDCKINLASKNKLASTPFKGGTLFGGEVCKVIKKRGNKH
As for B4, the binding entry is “binds”.

B5: CHERP (protein, UniProt Q8IWX8 1-916)
chain: MEMPLPPDDQELRNVIDKLAQFVARNGPEFEKMTMEKQKDNPKFSFLFGGEFYSYYKCKLALEQQQLICKQQTPELEPAATMPPLPQPPLAPAAPIPPAQGAPSMDELIQQSQWNLQQQEQHLLALRQEQVTAAVAHAVEQQMQKLLEETQLDMNEFDNLLQPIIDTCTKDAISAGKNWMFSNAKSPPHCELMAGHLRNRITADGAHFELRLHLIYLINDVLHHCQRKQARELLAALQKVVVPIYCTSFLAVEEDKQQKIARLLQLWEKNGYFDDSIIQQLQSPALGLGQYQATLINEYSSVVQPVQLAFQQQIQTLKTQHEEFVTSLAQQQQQQQQQQQQLQMPQMEAEVKATPPPPAPPPAPAPAPAIPPTTQPDDSKPPIQMPGSSEYEAPGGVQDPAAAGPRGPGPHDQIPPNKPPWFDQPHPVAPWGQQQPPEQPPYPHHQGGPPHCPPWNNSHEGMWGEQRGDPGWNGQRDAPWNNQPDAAWNSQFEGPWNSQHEQPPWGGGQREPPFRMQRPPHFRGPFPPHQQHPQFNQPPHPHNFNRFPPRFMQDDFPPRHPFERPPYPHRFDYPQGDFPAEMGPPHHHPGHRMPHPGINEHPPWAGPQHPDFGPPPHGFNGQPPHMRRQGPPHINHDDPSLVPNVPYFDLPAGLMAPLVKLEDHEYKPLDPKDIRLPPPMPPSERLLAAVEAFYSPPSHDRPRNSEGWEQNGLYEFFRAKMRARRRKGQEKRNSGPSRSRSRSKSRGRSSSRSNSRSSKSSGSYSRSRSRSCSRSYSRSRSRSRSRSRSSRSRSRSQSRSRSKSYSPGRRRRSRSRSPTPPSSAGLGSNSAPPIPDSRLGEENKGHQMLVKMGWSGSGGLGAKEQGIQDPIKGGDVRDKWDQYKGVGVALDDPYENYRRNKSYSFIARMKARDECK
For the molecule B5, the binding entry is given as “binds”.

B6: NONO (protein, UniProt Q15233 1-471)
chain: MQSNKTFNLEKQNHTPRKHHQHHHQQQHHQQQQQQPPPPPIPANGQQASSQNEGLTIDLKNFRKPGEKTFTQRSRLFVGNLPPDITEEEMRKLFEKYGKAGEVFIHKDKGFGFIRLETRTLAEIAKVELDNMPLRGKQLRVRFACHSASLTVRNLPQYVSNELLEEAFSVFGQVERAVVIVDDRGRPSGKGIVEFSGKPAARKALDRCSEGSFLLTTFPRPVTVEPMDQLDDEEGLPEKLVIKNQQFHKEREQPPRFAQPGSFEYEYAMRWKALIEMEKQQQDQVDRNIKEAREKLEMEMEAARHEHQVMLMRQDLMRRQEELRRMEELHNQEVQKRKQLELRQEEERRRREEEMRRQQEEMMRRQQEGFKGTFPDAREQEIRMGQMAMGGAMGINNRGAMPPAPVPAGTPAPPGPATMMPDGTLGLTPPTTERFGQAATMEGIGAIGGTPPAFNRAAPGAEFAPNKRRRY
On to B6, for which the binding result is “binds”.
